# According to the supplement of paper PMC10338343:
# ± gives the standard deviation. This is a selection; strong and weak results do not stand in their true shares. Many entries were measured with a wide error.
# Test system: MIWI (PIWIL1) piRISC loaded with L1MC piRNA (30 nt)
# Assay: pre-steady-state target cleavage rate (min^-1); MIWI and MILI are mouse PIWI proteins and EfPiwi is from a freshwater sponge; tags in brackets are library labels; higher = faster piRNA-guided slicing of the target
# Conditions: guide: L1MC piRNA 5'p-UAACUAAAUACUAUGCAAGCUGUAGGUCCU; auxiliary factor: none (no GTSF1)
# Procedure, shortened: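 The pre-steady-state cleavage rate was calculated from a burst-and-steady-state fit. Data came from Cleave-'n-Seq, in which […] transcribed, DNA-blocked target RNA library was mixed with 1 nM active affinity-purified piRISC carrying one synthetic guide, with or without 500 nM GTSF1 partner protein, in HEPES–potassium acetate buffer at 33 °C for 0–8 or 0–960 min. Uncleaved targets were sequenced and normalised to depth and to weakly complementary targets, three trials were pooled, and k3 was capped at 0.0001 min^-1.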
# 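Further: 1 nM active piRISC with 0.1 nM target library at 33 °C single turnover.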
row,Sequence,pre-steady-state target cleavage rate
1,AGGACCUACAGCUUCCAUAGUUUUUAGUUA,0.00179 ± 0.0036
2,UCCACCUACAGCUUGUCAUAGUAUUUAGUUA,0.0017 ± 0.0034
3,UCCACCUACAGCUUGCAUAGUAAAUAGUAA,0.00166 ± 0.004
4,UCCUGGAUGUCGAACGUUAGCUAUUUAGUUA,0.000331 ± 0.015
5,UCGACCUACAGCUUCCAUACUAUUUAGUUA,0.00084 ± 0.0055
6,UCCACCUACAGCAAGCAUAGUAUUUACAAA,0.000653 ± 0.0065
7,UCGACCUACAGCUUGCACUAGUAUUUAGUUA,0.00101 ± 0.0082
8,UCCUCCUACAGCUUGCAUAGUAUUAUCAAA [g7:g26:cont:t1A],0.00182 ± 0.004
9,UCCACCUACAGCUUCCAUAGUAUUUAGAUA,0.000768 ± 0.0075
10,UCGACCUAGUGCUUGCAUAGUAUUUUCAAA,0.00201 ± 0.0021
11,UCGACCUACAGGAAGCAUAGUAUUUUCAAA,0.000631 ± 0.0087
12,UCCACCUACAGCUUGCAUUGUAUUUACAAA,0.0016 ± 0.0036
13,UCGACCUACAGCUUGCAUUAGUAUUUAGUUA,0.00105 ± 0.0073
14,UCCACCUACAGCUUGCAUAGAUAUUACAAA,0.000414 ± 0.012
15,AGGACCUACAGCUUCCAUAGUAAUUAGUUA,0.00181 ± 0.0039
16,UCCUGGAUCAGCUUGCAUAGUAAAAUCAAA [g9:g22:cont:t1A],0.000358 ± 0.0087
17,UGGACCUACAGCUUCCAUAGAAUUUAGUUA,0.000549 ± 0.0037
18,UCGACCUACAGCUUGCAUACGUAUUUAGUUA,0.000944 ± 0.009
19,UCCACCUACAGCUUGCAUACAAUUUAGUAA,0.00151 ± 0.0043
20,UGGACCUACAGCAACCAUAGUAUUUAGUAA,0.00053 ± 0.0058

row,Sequence,pre-steady-state target cleavage rate
1,UGGACCUACAGCUUGCAUAGAUAUUUAGUUA,0.00142 ± 0.0057
2,UCCACCUACAGCUUGCAUAGUAUUUGUUA,0.00185 ± 0.005
3,UCCACCUACAGCUUCGAUAGUAUUUACAAA,0.000198 ± 0.016
4,UCGACCUACACGUUGCAUAGUAUUUAGAAA,0.00185 ± 0.0034
5,AGGACCUACAGCAUCCAUAGUAUUUAGUUA,0.00243 ± 0.0027
6,UCCUGGAUGAGCUUGCAUAGUAUUAUCAAA [g7:g21:cont:t1A],0.00189 ± 0.0025
7,AGGACCUACAGCUUGCAUAGAUUUUACAAA,0.00125 ± 0.0061
8,UCCUGGAUGUCGAACGAUAGUAUUAGUUA,0.000239 ± 0.028
9,UCGACCUACAGCAUGCAUAGUAUUUAGAAA,0.00286 ± 0.0033
10,UCCUGGAUGUCGAACGUAACAUUUUAGUUA,0.000224 ± 0.017
11,UGGACCUACAGCUUGCAUAGUAAAAACAAA,0.000315 ± 0.0096
12,AGGACCUACAGCUUGCUAUGUAUUUAGUAA,0.00262 ± 0.0026
13,UCCACCUACACCUUGCAUAGUAUUUUCAAA,0.00208 ± 0.0022
14,UCGACCUACAGCUUGCUAAGUAUUUAGAAA,0.000484 ± 0.0066
15,UGGACCUACAGCUACGAUAGUAUUUACAAA,0.000633 ± 0.0084
16,UGGACCUACAGCUUGCAUAGUAAUUUCAAA,0.000826 ± 0.0068
17,AGGACCUACAGCUUGCAUAGAUAUUAGAAA,0.000826 ± 0.012
18,UCCACCUACAGCUUGCAAUGUAUUUACAAA,0.000873 ± 0.0086
19,UCGACCUACAGCUUGCAUUCAAUUUAGAAA,0.000649 ± 0.0093

# Single values from above.
# For pre-steady-state target cleavage rate, UCCACCUACAGCUUGCAUAGUAUUUGUUA is listed with 0.00185 ± 0.005
# For pre-steady-state target cleavage rate, UCCACCUACAGCUUGCAUAGUAAAUAGUAA is listed with 0.00166 ± 0.004
# For pre-steady-state target cleavage rate, UCCACCUACAGCUUGCAAUGUAUUUACAAA is listed with 0.000873 ± 0.0086
